Literature values, collected in EP3796908B1, “CONTROLLED RELEASE PROPIVERINE FORMULATIONS” (Santa Farma Ilaç Sanayi A.S., priority 2018, dated 2020).
The name of at least one read-out is uncertain.

Columns and labels:
[1] = BCS classification
[2] = food effect

Q: For `CCCOC(C(=O)OC1CCN(C)CC1)(c1ccccc1)c1ccccc1` [propiverine, 1-methyl-4-piperidyl diphenylpropoxy acetate], which permeability [1] is on record?
A: The permeability was “low permeability”.

Q: What about the “bioavailability after the meal compared to the fasting conditions” value [2] of the same compound?
A: The value was 99%.
